Structures can show the parent of a compound that is named as a salt. The list shows a part of the results. Most entries show no effect beyond the scatter of the controls.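 Using flow cytometry, the assay measures the median γH2AX antibody signal in S-phase Reh cells (a human leukemia line). Each score is the number of standard deviations from the median difference of paired plate sets. Candidate hits scored above 2.5; compounds scoring below -2 lowered MK1775-induced damage.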
Test system: Reh
Experiment: Z' of S-phase gammaH2AX difference (drug + MK1775 minus drug alone) (Z-score); higher = stronger synergistic S-phase DNA damage with MK1775
Details: MK1775 concentration 400 nM; first compound 10 µM; 4 h

| Compound | Z' of S-phase gammaH2AX difference (Z-score) |
| --- | --- |
| C[C@]12CCC(=O)C=C1CC[C@@H]1[C@@H]2[C@@H](O)C[C@@]2(C)[C@H]1CC[C@]2(O)C(=O)CO [Hydrocortisone] + C=CCn1c(=O)c2cnc(Nc3ccc(N4CCN(C)CC4)cc3)nc2n1-c1cccc(C(C)(C)O)n1 [MK1775] | inactive: -0.663 |
| C[C@]12CCC(=O)C=C1CC[C@@H]1[C@@H]2[C@@H](O)C[C@@]2(C)[C@H]1CC[C@]2(O)C(=O)CO [Hydrocortisone (Cortisol)] + C=CCn1c(=O)c2cnc(Nc3ccc(N4CCN(C)CC4)cc3)nc2n1-c1cccc(C(C)(C)O)n1 [MK1775] | inactive: 0.486 |
| S=C(S)OC1CC2CC1C1CCCC21 [D-609 potassium] + C=CCn1c(=O)c2cnc(Nc3ccc(N4CCN(C)CC4)cc3)nc2n1-c1cccc(C(C)(C)O)n1 [MK1775] | inactive: -0.0541 |
| Oc1ncnc2[nH]ncc12 [Allopurinol] + C=CCn1c(=O)c2cnc(Nc3ccc(N4CCN(C)CC4)cc3)nc2n1-c1cccc(C(C)(C)O)n1 [MK1775] | inactive: 0.568 |
| CCC(=O)N1CCN(c2ccc(-n3c(=O)ccc4cnc5ccc(-c6cnc7ccccc7c6)cc5c43)cc2C(F)(F)F)CC1 [Torin 1] + C=CCn1c(=O)c2cnc(Nc3ccc(N4CCN(C)CC4)cc3)nc2n1-c1cccc(C(C)(C)O)n1 [MK1775] | inactive: -0.873 |
| COc1ccc(CCN(C)CCCC(C#N)(c2ccc(OC)c(OC)c2)C(C)C)cc1OC (stereo unspecified) [(?)-Verapamil hydrochloride] + C=CCn1c(=O)c2cnc(Nc3ccc(N4CCN(C)CC4)cc3)nc2n1-c1cccc(C(C)(C)O)n1 [MK1775] | inactive: 0.565 |
| C[N+]1(CCCCC[N+]2(C)CCCC2)CCCC1 [Pentolinium di[L(+)-tartrate]] + C=CCn1c(=O)c2cnc(Nc3ccc(N4CCN(C)CC4)cc3)nc2n1-c1cccc(C(C)(C)O)n1 [MK1775] | inactive: 2.41 |
| O=C(Nc1ccccc1)c1cc([N+](=O)[O-])ccc1Cl + C=CCn1c(=O)c2cnc(Nc3ccc(N4CCN(C)CC4)cc3)nc2n1-c1cccc(C(C)(C)O)n1 [MK1775] | inactive: -0.311 |
| O=c1cc(-c2cccc3c2Sc2ccccc2S3)oc(N2CCOCC2)c1 + C=CCn1c(=O)c2cnc(Nc3ccc(N4CCN(C)CC4)cc3)nc2n1-c1cccc(C(C)(C)O)n1 [MK1775] | inactive: -0.143 |
| Fc1ccc(C(c2ccc(F)cc2)N2CCN(C/C=C/c3ccccc3)CC2)cc1 [Flunarizine dihydrochloride] + C=CCn1c(=O)c2cnc(Nc3ccc(N4CCN(C)CC4)cc3)nc2n1-c1cccc(C(C)(C)O)n1 [MK1775] | inactive: -0.59 |
| N#Cc1c(O)c2c(-c3ccc(-c4ccccc4O)cc3)csc2[nH]c1=O + C=CCn1c(=O)c2cnc(Nc3ccc(N4CCN(C)CC4)cc3)nc2n1-c1cccc(C(C)(C)O)n1 [MK1775] | inactive: 0.622 |
| COc1cccc2c1C(=O)c1c(O)c3c(c(O)c1C2=O)C[C@@](O)(C(=O)CO)C[C@@H]3O[C@H]1C[C@H](N)[C@H](O)[C@H](C)O1 [Doxorubicin (Adriamycin)] + C=CCn1c(=O)c2cnc(Nc3ccc(N4CCN(C)CC4)cc3)nc2n1-c1cccc(C(C)(C)O)n1 [MK1775] | inactive: 0.845 |
| Cn1cnc2c(NCc3ccccc3)nc(NCCO)nc21 [Olomoucine] + C=CCn1c(=O)c2cnc(Nc3ccc(N4CCN(C)CC4)cc3)nc2n1-c1cccc(C(C)(C)O)n1 [MK1775] | inactive: 0.505 |
| COc1cccc2c1[C@@H]1CN(CCCCn3c(=O)[nH]c4c(sc5ncc(-c6ccccc6)nc54)c3=O)C[C@@H]1CO2 [Fiduxosin hydrochloride] + C=CCn1c(=O)c2cnc(Nc3ccc(N4CCN(C)CC4)cc3)nc2n1-c1cccc(C(C)(C)O)n1 [MK1775] | inactive: -0.955 |
| Nc1nc(Cl)nc2c1ncn2[C@H]1C[C@H](O)[C@@H](CO)O1 [Cladribine] + C=CCn1c(=O)c2cnc(Nc3ccc(N4CCN(C)CC4)cc3)nc2n1-c1cccc(C(C)(C)O)n1 [MK1775] | inactive: -0.283 |
| N=C(N)NC(=O)Cc1c(Cl)cccc1Cl [Guanfacine hydrochloride] + C=CCn1c(=O)c2cnc(Nc3ccc(N4CCN(C)CC4)cc3)nc2n1-c1cccc(C(C)(C)O)n1 [MK1775] | inactive: 0.6 |
| CN1C[C@H](O)[C@@H](O)[C@H](O)[C@H]1CO [N-Methyl-1-deoxynojirimycin] + C=CCn1c(=O)c2cnc(Nc3ccc(N4CCN(C)CC4)cc3)nc2n1-c1cccc(C(C)(C)O)n1 [MK1775] | inactive: 0.432 |
| Nc1cccc2c1C(=O)N(C1CCC(=O)NC1=O)C2=O (stereo unspecified) [Pomalidomide] + C=CCn1c(=O)c2cnc(Nc3ccc(N4CCN(C)CC4)cc3)nc2n1-c1cccc(C(C)(C)O)n1 [MK1775] | inactive: 0.171 |
| COc1ccccc1N1CCN(CCN(C(=O)C2CCCCC2)c2ccccn2)CC1 + C=CCn1c(=O)c2cnc(Nc3ccc(N4CCN(C)CC4)cc3)nc2n1-c1cccc(C(C)(C)O)n1 [MK1775] | inactive: 0.531 |
| C=CC1=C(C)c2cc3[nH]c(cc4nc(cc5[nH]c(cc1n2)c(C)c5CCC(=O)O)C(CCC(=O)O)=C4C)c(C)c3C=C [Protoporphyrin IX disodium] + C=CCn1c(=O)c2cnc(Nc3ccc(N4CCN(C)CC4)cc3)nc2n1-c1cccc(C(C)(C)O)n1 [MK1775] | inactive: 2.06 |
| CO[C@H]1C[C@@H]2CC[C@@H](C)[C@@](O)(O2)C(=O)C(=O)N2CCCC[C@H]2C(=O)O[C@H]([C@H](C)C[C@@H]2CC[C@@H](OCCO)[C@H](OC)C2)CC(=O)[C@H](C)/C=C(\C)[C@@H](O)[C@@H](OC)C(=O)[C@H](C)C[C@H](C)/C=C/C=C/C=C/1C [Everolimus (RAD001)] + C=CCn1c(=O)c2cnc(Nc3ccc(N4CCN(C)CC4)cc3)nc2n1-c1cccc(C(C)(C)O)n1 [MK1775] | inactive: -0.493 |

Random excerpt: two entries already listed, in no set order.

| Compound | Z' of S-phase gammaH2AX difference (Z-score) |
| --- | --- |
| C[C@]12CCC(=O)C=C1CC[C@@H]1[C@@H]2[C@@H](O)C[C@@]2(C)[C@H]1CC[C@]2(O)C(=O)CO [Hydrocortisone] + C=CCn1c(=O)c2cnc(Nc3ccc(N4CCN(C)CC4)cc3)nc2n1-c1cccc(C(C)(C)O)n1 [MK1775] | inactive: -0.663 |
| CO[C@H]1C[C@@H]2CC[C@@H](C)[C@@](O)(O2)C(=O)C(=O)N2CCCC[C@H]2C(=O)O[C@H]([C@H](C)C[C@@H]2CC[C@@H](OCCO)[C@H](OC)C2)CC(=O)[C@H](C)/C=C(\C)[C@@H](O)[C@@H](OC)C(=O)[C@H](C)C[C@H](C)/C=C/C=C/C=C/1C [Everolimus (RAD001)] + C=CCn1c(=O)c2cnc(Nc3ccc(N4CCN(C)CC4)cc3)nc2n1-c1cccc(C(C)(C)O)n1 [MK1775] | inactive: -0.493 |

— the supplement of paper PMC5355238
